# Assay results taken from PubChem BioAssay AID2685 (National Center for Advancing Translational Sciences (NCATS), 2010).
# Hit rate of the full screen: of about 320,000 compounds, about 2,100 (0.66%) were called active. The inconclusive results got no clear call from the source; some entries with a clear call stand among them for comparison. Calls follow the shape of the dose curve; as a rule, active = well fitted inhibition curve with a large enough effect in the signal ratio, with a control signal flat (not every such curve was filed as active); inconclusive = small, poorly fitted or top-dose-only effect, or effect the other way, or a change in a side signal; inactive = flat fitted curve, though single readings scatter; the % refers to the signal ratio. Potencies beside an inconclusive call are fits to weak or partial responses and may not hold up.
# Test: qHTS Assay for Lipid Storage Modulators in Drosophila S3 Cells
# Settings: BODIPY lipid droplet fluorescence, 18-24 h, cells fed with added oleic acid; lipid storage change, negative = inhibition: at 46.1 µM (top of the series) unless noted
# How it was run: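 Drosophila S3 cells loaded with oleic acid (400 uM, as added) and compounds at several concentrations; lipid droplets imaged by 488-nm laser-scanning cytometry, 500–530 nm intensity and object ratio to cell channel. Percent activity normalized to 20 uM Triacsin C.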
# % is scaled to controls: 0 for no effect and ±100 for the full control effect; potency is read from the fitted curve at half-maximal effect.
SMILES,Potency,"lipid storage change, negative = inhibition"
CCOC(=O)C1C(=O)OC(C)(C)C1C(CC)C(=O)c1c(C)cc(C)cc1C (stereo not given),"inconclusive: 29.1 µM [activator, single point]",
COC(=O)c1ccc(NC(=O)c2ccc3nsnc3c2)cc1,"inconclusive: 3.26 µM [activator, partial curve]",
CC(=O)N1CCc2cc(S(=O)(=O)NC3CCCc4ccccc43)ccc21 (stereo not given),,inconclusive: -23.8%
CN(Cc1ccccc1)c1ccc(C(CC(N)=O)NC(=O)Cc2cccc3ccccc23)cc1[N+](=O)[O-] (stereo not given),,inconclusive: -6.75%
CN1C(=O)N(C)C2(c3ccccc3)Nn3c(s/c(=C/c4ccccc4)c3=O)=NC12c1ccccc1 (stereo not given),"inconclusive: 0.58 µM [falling, full curve, poor fit]",
CC(C)(C)NC(=O)CSc1ncnc2c1cnn2-c1ccccc1,"inconclusive: 16.4 µM [falling, single point]",
O=C(NCc1cccc(Cl)c1)c1ccc2nc(N3CCOCC3)sc2c1,,inconclusive: -26.9%
COc1ccccc1C(=O)NC(=S)Nc1ccc(NC(=O)c2ccco2)cc1,"inconclusive: 20.6 µM [falling, partial curve]",
COc1cccc(C(c2c(O)nc(SC)n(C)c2=O)c2c(O)nc(SC)n(C)c2=O)c1,,inconclusive: 23.7%
Cc1nc(NC(=O)C2CCCC2)sc1Cc1ccc2c(c1)OCO2,,inconclusive: -0.121%
O=C(CSc1nc2ccccc2[nH]1)NCCc1ccc(Cl)cc1,,inconclusive: 8.88%
CCSc1nc(N2CCOCC2)c2c(c1C#N)CCCC2,"inconclusive: 29.1 µM [activator, single point]",
O=C(c1ccco1)N1CCN(C(=O)c2cc(Cl)nc3ccccc23)CC1,"inconclusive: 25.9 µM [rising, single point]",
CC(C)C(NC(=O)CN1C(=O)c2cccc3cccc1c23)C(C)C,"inconclusive: 7.31 µM [falling, partial curve]",
COCCCN(C(=O)c1ccccc1F)c1nc(-c2ccc(OC)cc2)cs1,,inactive
CCOC(=O)CNC(=O)C1(/C=C/c2ccccc2)CC(=O)N1c1ccc(OC)cc1 (stereo not given),,inconclusive: -21.9%
CC(C)c1ccccc1NC(=O)COC(=O)COc1ccccc1[N+](=O)[O-],,inconclusive: 16.8%
CN(CCc1cn[nH]c1)Cc1nc(C(c2ccccc2)c2ccccc2)no1,,inconclusive: -10.3%
Cc1cccc(NC(=O)N[C@@H](C)C(=O)O)c1,,inconclusive: -12.5%
COc1ccccc1N1C(=O)CCC1(C#N)c1ccccc1 (stereo not given),,inconclusive: -34%

# In another format: two of the compounds above.
SMILES | Potency | lipid storage change, negative = inhibition
CN1C(=O)N(C)C2(c3ccccc3)Nn3c(s/c(=C/c4ccccc4)c3=O)=NC12c1ccccc1 (stereo not given) | inconclusive: 0.58 µM [falling, full curve, poor fit] | 
CCOC(=O)CNC(=O)C1(/C=C/c2ccccc2)CC(=O)N1c1ccc(OC)cc1 (stereo not given) |  | inconclusive: -21.9%
